Data taken from PubChem BioAssay AID2685 (National Center for Advancing Translational Sciences (NCATS), 2010).
Some of the results follow. The main result of the screen is listed elsewhere. These columns were measured beside it and carry no call. The list favours compounds with an active or inconclusive main result. Potencies come from curve fits of mixed quality, noted in brackets.

Assay: qHTS Assay for Lipid Storage Modulators in Drosophila S3 Cells;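 on cell number change: cells counted by Cell Tracker Red CMTPX staining in the red channel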
Conditions: BODIPY lipid droplet fluorescence, 18-24 h; for cell number change: measured here: cell count max response, cells fed with added oleic acid
How it was run: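 Laser-scanning cytometry quantifies lipid droplet accumulation (500–530 nm total intensity; droplet/cell object ratio) in oleic acid-fed (400 uM added) Drosophila S3 cells treated with a concentration series. 20 uM Triacsin C defined 100% inhibition.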

[1] = measured here: lipid fluorescence (Fed channel) AC50, cells fed with added oleic acid
[2] = measured here: cell number channel AC50, cells fed with added oleic acid

CC(OC(=O)c1cccs1)C(=O)NCc1ccc2c(c1)OCO2 (configuration not stated)
cell number change: 17.1% | AC50 [1]: 1160 nM [rising, partial curve]

COc1ccccc1CNC(=O)C1CC2Cn3c(nc4ccccc43)C2N1C (configuration not stated)
cell number change: 0.818% | AC50 [1]: 29100 nM [rising, single point]

CCOC(=O)c1cc(C(=O)n2cc(Cl)cn2)nn1C
cell number change: 2.96% | AC50 [1]: 18400 nM [falling, single point]

NC(=S)NNC(=O)Nc1cccc(Cl)c1
cell number change: 10.5%

CCN(CC)CCOC(=O)c1ccc(NC(=O)COc2cc(=O)n(CC)c3ccccc23)cc1
cell number change: -88.2% | AC50 [1]: 116 nM [rising, full curve, poor fit]

COc1ccc(C2=NN(C(=O)c3ccccc3)C(c3cccc([N+](=O)[O-])c3)C2)cc1 (configuration not stated)
cell number change: 32% | AC50 [1]: 29100 nM [rising, single point]

CCOC(=O)C1CCCN(CCC(=O)Nc2ccc3c(c2)CCC3)C1 (configuration not stated)
cell number change: 25.8% | AC50 [1]: 580 nM [falling, single point]

CCOC(=O)C1=C(N)OC(CCl)=C(C#N)C1c1ccsc1 (configuration not stated)
cell number change: 24.4%

CSc1ccc(S(=O)(=O)NC2CCCCC2)cc1
AC50 [1]: 20600 nM [falling, partial curve]

O=C(Nc1ccccc1)c1ccc(NC2CCCCC2)c(S(=O)(=O)N2CCOCC2)c1
cell number change: 173% | AC50 [2]: 16400 nM [rising, partial curve] | AC50 [1]: 164 nM [rising, full curve, poor fit]

COC(=O)c1ccc(C(=O)Nc2ccc(C(C)C)cc2N)cc1
cell number change: 58.9% | AC50 [2]: 16400 nM [rising, partial curve] | AC50 [1]: 25900 nM [rising, partial curve, poor fit]

COc1ccccc1-c1cc(C(=O)NCc2ccc(F)cc2)no1
cell number change: 28.1% | AC50 [1]: 820 nM [rising, full curve]

CC(C)Oc1ccc(C(=O)NC2(C(F)(F)F)NC(=O)N(CCCc3ccccc3)C2=O)cc1 (configuration not stated)
cell number change: 15.5% | AC50 [1]: 29100 nM [rising, single point]

O=C(CCCC(=O)N/N=C/c1ccccc1C(=O)O)N/N=C/c1ccccc1C(=O)O
cell number change: -50.1% | AC50 [2]: 1460 nM [falling, full curve] | AC50 [1]: 259 nM [falling, partial curve, poor fit]

O=C(COC(=O)COc1ccccc1)Nc1cccc([N+](=O)[O-])c1
cell number change: 19.1% | AC50 [1]: 2590 nM [rising, single point]

NC(=O)CC(NC(=O)Cc1ccc(Br)cc1)c1ccc(NCCN2CCCC2)c([N+](=O)[O-])c1 (configuration not stated)
cell number change: 18.8% | AC50 [1]: 5170 nM [falling, single point]

O=C(CSc1nncn1-c1ccccc1)Nc1c(F)cccc1F
cell number change: 8.82% | AC50 [1]: 6510 nM [rising, single point]

O=C(NCC1CCCO1)c1cnc(Cl)c(Cl)c1 (configuration not stated)
cell number change: -8.11% | AC50 [1]: 5800 nM [falling, full curve]

CCOC(=O)C1CCCN(S(=O)(=O)c2c(C)c(C)cc(C)c2C)C1 (configuration not stated)
AC50 [2]: 6510 nM [falling, single point]

O=C(COc1ccc(Cl)cc1)Nc1ccc(CN2CCOCC2)cc1
cell number change: 12.5% | AC50 [1]: 116 nM [rising, full curve, poor fit]

CCOC(=O)c1c(C)[nH]c(C)c1C(=O)CSc1nc2ccccc2c(=O)n1-c1ccccc1C
cell number change: 31.1% | AC50 [2]: 580 nM [rising, full curve] | AC50 [1]: 9200 nM [rising, partial curve, poor fit]

O=c1c2ccccc2ncn1CCOCCOc1cccc(Br)c1
cell number change: -3.85% | AC50 [1]: 7310 nM [rising, partial curve]

CCC(C)[C@H](N)c1nnc(SCC(=O)Nc2cccc(Cl)c2)o1 (some centres not stated)
cell number change: 12.9% | AC50 [1]: 82 nM [rising, single point]

CC(C)(C)OC(=O)[C@H](Cc1ccccc1)NC(=O)c1nc[nH]c1C(=O)NC1CCN(C(=O)OC(C)(C)C)CC1
cell number change: -34.7% | AC50 [2]: 23100 nM [falling, single point] | AC50 [1]: 29100 nM [falling, single point]

O=C(COC(=O)CCc1ccc(S(=O)(=O)N2CCCCC2)cc1)Nc1ccc2c(c1)OCO2
cell number change: 9.24% | AC50 [1]: 4.61 nM [falling, full curve, poor fit]

Cc1ccc(C)c(OCC(=O)NNC(=O)C2CC2)c1
cell number change: 7.92% | AC50 [1]: 58 nM [rising, full curve, poor fit]

Cc1ccc(-c2nn(CCC(=O)NCC3CCCO3)c(=O)c3ccccc23)cc1 (configuration not stated)
cell number change: -20.5% | AC50 [1]: 1460 nM [rising, full curve, poor fit]

Cc1ccc(S(=O)(=O)N(C)Cc2ccc(C(=O)NN=C(CC(C)C)CC(C)C)cc2)cc1
cell number change: 26.7% | AC50 [1]: 4610 nM [rising, full curve]

CCOc1cccc(-c2nnc(SCC(=O)Nc3cc(C)ccc3OC)n2N)c1
cell number change: -37.2% | AC50 [1]: 14600 nM [falling, partial curve, poor fit]

O=C1C2CC=CCC2C(=O)N1c1nc2n(n1)C(c1ccccc1)CC(c1ccccc1)N2 (configuration not stated)
cell number change: 3.68%

O=C(CC1(c2ccc(Cl)cc2)C2CC3CC(C2)CC1C3)NCCO (configuration not stated)
cell number change: -28% | AC50 [2]: 116 nM [falling, full curve, poor fit] | AC50 [1]: 2310 nM [falling, partial curve, poor fit]

CCOc1ccccc1NC(=O)COC(=O)/C=C/c1ccc(OC)c(OC)c1
cell number change: 8.6%

Cc1cc(C(F)(F)F)nc(SCC(=O)NC2=NC(=O)C(C)S2)n1 (configuration not stated)
cell number change: 1.29% | AC50 [2]: 731 nM [falling, full curve]

Clc1ccc(CNc2ccc3nnc(-c4ccccc4)n3n2)cc1
cell number change: 12.2%

Cc1nc(NCCO)c2nnn(Cc3ccccc3F)c2n1
cell number change: 93.3% | AC50 [2]: 16400 nM [rising, partial curve, poor fit] | AC50 [1]: 103 nM [rising, full curve, poor fit]

COc1ccc(C(=O)NCCCc2nc3ccccc3n2Cc2cc(C)ccc2C)cc1OC
cell number change: -22% | AC50 [1]: 1640 nM [rising, partial curve]

CN(C)C(CNC(=O)c1cccs1)c1cccnc1 (configuration not stated)
cell number change: 51.2%

O=C(Oc1ccccc1)n1c(=S)oc2ccccc21
cell number change: -27.9% | AC50 [2]: 5.17 nM [falling, full curve, poor fit]

O=C(Nc1cccc(C(=O)O)c1)/C(=C\c1ccc2c(c1)OCO2)NC(=O)c1ccccc1
cell number change: 14%

CCc1ccc2oc(=O)cc(CN3CCCCC3)c2c1
cell number change: 12.5% | AC50 [1]: 16400 nM [falling, single point]

OC(CN1CCCCC1)CN(c1ccccc1)c1ccccc1 (configuration not stated)
cell number change: -9.75% | AC50 [1]: 116 nM [falling, full curve, poor fit]

Cc1ccc(-c2cn3c(n2)CCCC3)cc1
cell number change: 32.4% | AC50 [2]: 32600 nM [rising, single point] | AC50 [1]: 820 nM [falling, full curve]

Cc1nn(Cc2cccc(C(=O)NC34CC5CC(CC(C5)C3)C4)c2)c(C)c1Br
cell number change: -23% | AC50 [1]: 29100 nM [rising, single point]

COc1ccc([C@H](NC(=O)OC(C)(C)C)C(=O)OC(C)(C)C)cc1
cell number change: 13.6% | AC50 [2]: 2910 nM [rising, single point] | AC50 [1]: 65.1 nM [rising, full curve, poor fit]

COc1ccc(CCN=C(N)C(C)c2ccccc2)cc1OC (configuration not stated)
cell number change: 11.3% | AC50 [1]: 580 nM [rising, single point]

O=[N+]([O-])c1ccc(Nc2nc(NC3CCCCC3)nc(N3CCCC3)n2)cc1
cell number change: -14.8% | AC50 [1]: 820 nM [falling, single point]

COc1cc(-c2cc(C(=O)N3CCN(c4ccccn4)CC3)c3ccccc3n2)cc(OC)c1OC
cell number change: -16.1%

COCCNS(=O)(=O)c1ccc(C2CNC(=O)C2)cc1 (configuration not stated)
cell number change: 1.75%

O=C1c2ccccc2C(=O)N1/N=C/c1ccc(Oc2ccc([N+](=O)[O-])cn2)cc1
cell number change: 18.2% | AC50 [1]: 103 nM [falling, full curve, poor fit]

CN(C)Cc1c(C(=O)N/N=C/c2ccco2)nnn1-c1nonc1N
cell number change: -1.28% | AC50 [1]: 411 nM [rising, partial curve, poor fit]

COc1ccc(NC(=O)Nc2ccc3nc(C)c(C)nc3c2)cc1
cell number change: 22.1% | AC50 [1]: 29100 nM [rising, partial curve, poor fit]

O=[N+]([O-])c1ccc(N=Cc2ccc(Br)c([N+](=O)[O-])c2)cc1
cell number change: -61.4% | AC50 [2]: 184 nM [falling, full curve]

Cc1nnc2n(-c3ccccc3)c(=O)c3c4c(sc3n12)COC(C(C)C)C4 (configuration not stated)
cell number change: -1.4% | AC50 [1]: 1030 nM [rising, partial curve]

CCCCn1c(/N=C/c2ccc3c(c2)OCO3)nc2ccccc21
cell number change: 24.8% | AC50 [2]: 4.11 nM [rising, full curve, poor fit] | AC50 [1]: 1300 nM [falling, full curve]

Cc1cc(O)c(C(C)C)cc1N=Cc1ccccc1O
cell number change: -66.5% | AC50 [2]: 23100 nM [falling, partial curve] | AC50 [1]: 25900 nM [falling, partial curve]

Cc1cccc(OCC(O)CN2CCNCC2)c1 (configuration not stated)
cell number change: 5.56%

COc1ccc(-c2c(C#Cc3ccsc3)c3cc(Br)ccc3n2C)cc1
cell number change: -22.7% | AC50 [1]: 580 nM [falling, single point]

Cc1ccc(S(=O)(=O)Nc2ccc(O)c(S(=O)(=O)c3ccc(C)cc3)c2)cc1
cell number change: -25.1%

CN(CCC#N)C(=O)COC(=O)c1ccc(Cl)c(S(N)(=O)=O)c1
cell number change: -73.1% | AC50 [2]: 3260 nM [falling, full curve] | AC50 [1]: 3660 nM [falling, full curve]
